Test results: the supplement of paper PMC10849652
This is one part of the list.

Protein sequences, listed by entry. Tags and fused reporters are not part of them. Lines headed by an entry give the natural chain unless they say otherwise; changes in a name come on top.
UniProt Q8TB36: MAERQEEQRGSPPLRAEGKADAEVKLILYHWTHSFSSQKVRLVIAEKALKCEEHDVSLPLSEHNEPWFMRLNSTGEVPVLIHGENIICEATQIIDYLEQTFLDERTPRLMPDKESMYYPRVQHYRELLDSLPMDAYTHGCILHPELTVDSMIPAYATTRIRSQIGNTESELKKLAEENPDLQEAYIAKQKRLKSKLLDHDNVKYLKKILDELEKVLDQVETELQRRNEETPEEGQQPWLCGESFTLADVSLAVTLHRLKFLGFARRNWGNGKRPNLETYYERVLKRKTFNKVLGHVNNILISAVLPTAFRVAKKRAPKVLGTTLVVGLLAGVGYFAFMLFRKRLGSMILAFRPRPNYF
UniProt Q8IVH2: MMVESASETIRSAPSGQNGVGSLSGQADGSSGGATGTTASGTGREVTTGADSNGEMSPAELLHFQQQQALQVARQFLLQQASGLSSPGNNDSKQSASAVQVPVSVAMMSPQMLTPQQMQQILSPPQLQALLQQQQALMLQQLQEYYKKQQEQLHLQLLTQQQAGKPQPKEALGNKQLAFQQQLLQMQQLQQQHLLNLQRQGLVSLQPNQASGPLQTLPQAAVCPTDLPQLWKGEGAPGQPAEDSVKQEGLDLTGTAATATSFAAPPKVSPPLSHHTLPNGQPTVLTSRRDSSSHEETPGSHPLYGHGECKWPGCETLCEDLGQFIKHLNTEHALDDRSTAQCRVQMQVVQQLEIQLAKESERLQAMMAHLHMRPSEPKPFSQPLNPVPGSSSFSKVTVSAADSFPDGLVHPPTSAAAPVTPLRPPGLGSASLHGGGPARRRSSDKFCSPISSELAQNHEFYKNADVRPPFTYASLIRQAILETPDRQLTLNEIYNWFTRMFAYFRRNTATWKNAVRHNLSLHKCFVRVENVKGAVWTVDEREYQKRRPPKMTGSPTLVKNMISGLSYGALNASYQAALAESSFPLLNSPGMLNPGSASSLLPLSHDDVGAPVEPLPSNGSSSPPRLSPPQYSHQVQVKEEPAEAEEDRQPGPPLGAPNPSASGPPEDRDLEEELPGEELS
UniProt Q3B7J2: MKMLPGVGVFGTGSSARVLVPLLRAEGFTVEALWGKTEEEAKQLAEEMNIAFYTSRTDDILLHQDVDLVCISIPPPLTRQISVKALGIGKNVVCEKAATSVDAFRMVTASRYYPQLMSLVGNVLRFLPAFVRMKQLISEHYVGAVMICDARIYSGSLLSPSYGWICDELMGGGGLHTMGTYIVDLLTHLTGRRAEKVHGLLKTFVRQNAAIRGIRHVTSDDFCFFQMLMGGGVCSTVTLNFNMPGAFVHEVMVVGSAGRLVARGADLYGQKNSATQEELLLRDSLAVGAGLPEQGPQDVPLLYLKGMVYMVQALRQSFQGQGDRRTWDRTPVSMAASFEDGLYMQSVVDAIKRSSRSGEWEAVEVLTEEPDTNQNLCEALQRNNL
UniProt Q9BZ67: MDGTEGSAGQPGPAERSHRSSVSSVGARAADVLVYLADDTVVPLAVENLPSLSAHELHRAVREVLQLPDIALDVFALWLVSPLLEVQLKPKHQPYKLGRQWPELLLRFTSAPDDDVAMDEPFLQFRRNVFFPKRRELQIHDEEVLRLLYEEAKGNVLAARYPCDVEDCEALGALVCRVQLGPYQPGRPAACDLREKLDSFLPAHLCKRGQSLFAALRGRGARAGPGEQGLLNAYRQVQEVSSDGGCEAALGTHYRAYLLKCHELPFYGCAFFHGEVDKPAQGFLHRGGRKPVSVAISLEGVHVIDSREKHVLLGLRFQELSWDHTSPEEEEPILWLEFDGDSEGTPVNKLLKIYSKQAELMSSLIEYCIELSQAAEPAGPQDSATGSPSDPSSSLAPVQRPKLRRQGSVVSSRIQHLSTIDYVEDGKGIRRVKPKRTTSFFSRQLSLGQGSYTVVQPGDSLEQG

Legend:
Assay in all cases: log2 fold change, soluble protein after heating vs DMSO (PISA); higher = thermal stabilisation; K562 lysate, 10 uM; active = over 0.2 and 3.5 SD of the protein, either way, in both replicates (recomputed)
[1] = compound: CN1CC[C@H](c2c(O)cc(O)c3c(=O)cc(-c4ccccc4Cl)oc23)[C@H](O)C1 [alvocidib]
Method in brief: (§1)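 Following dounce homogenisation of K562 pellets in PBS pH 7.4 with 1 mM MgCl2, crude extract at 1 mg/mL protein was incubated for 30 min with 10 μM compound. Aliquots were then heated for 3 min over 48°C-58°C and pooled, NP-40 was added to 0.5% at 4°C, and soluble protein was recovered as the supernatant at 21,000xg for 90 min. Channel-sum-equalised TMTpro 16plex LC-MS/MS quantified this protein. Each value, from duplicates, is a log-two fold change in thermal stability relative to solvent controls.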

[2] = compound: CN1CCc2c(c3ccccc3n2Cc2ccc(C(=O)NO)cc2)C1 [Tubastatin A]
Method in brief: as §1

[3] = compound: CNC(=O)C1=CC=CC=C1NC2=NC(=NC=C2Cl)NC3=C(C=C(C=C3)N4CCOCC4)OC
Method in brief: as §1

[4] = compound: CNc1nc(-c2ccc3c(N)n[nH]c3c2)cc(N2C[C@@H](C(=O)NC3CCCCC3)CC[C@H]2C)n1
Method in brief: as §1

[5] = compound: COc1cc(Nc2ncc3c(n2)-c2ccc(Cl)cc2C(c2c(F)cccc2OC)=NC3)ccc1C(=O)O [alisertib]
Method in brief: as §1

[6] = compound: COc1cc2nc(-c3cc(F)ccc3O)nc(N[C@@H]3CNC[C@H]3C(C)(C)O)c2cc1OC
Method in brief: as §1

[7] = compound: COc1cc2ncnc(Nc3ccc(F)c(Cl)c3)c2cc1OCCCN1CCOCC1 [gefitinib]
Method in brief: as §1

[8] = compound: CS(=O)(=O)CCNCc1ccc(-c2ccc3ncnc(Nc4ccc(OCc5cccc(F)c5)c(Cl)c4)c3c2)o1 [lapatinib]
Method in brief: as §1

[9] = compound: C[C@@H](Oc1cc(-c2cnn(C3CCNCC3)c2)cnc1N)c1c(Cl)ccc(F)c1Cl [crizotinib]
Method in brief: as §1

[10] = compound: C[C@H](C1=CC=C(C=C1)C(=O)NC2=C3C=CNC3=NC=C2)N
Method in brief: as §1

[11] = compound: C[C@H](Nc1ncnc2nc[nH]c12)c1cc2cccc(Cl)c2c(=O)n1-c1ccccc1 [duvelisib]
Method in brief: as §1

[12] = compound: Cc1cc(Nc2cc(CN3CCOCC3)c3nc(C)c(Cc4ccc(Cl)cc4F)n3n2)n[nH]1 [gandotinib]
Method in brief: as §1

[13] = compound: Cc1ccc(-n2nc(C(C)(C)C)cc2NC(=O)Nc2ccc(OCCN3CCOCC3)c3ccccc23)cc1 [doramapimod]
Method in brief: as §1

[14] = compound: Cc1cccc(CC(=O)N2CCc3c2ccc(-c2cn(C)c4ncnc(N)c24)c3F)n1
Method in brief: as §1

[15] = compound: CNC(=O)c1ccc(Nc2ncc(C(F)(F)F)c(NCc3nccnc3N(C)S(C)(=O)=O)n2)cc1 [defactinib]
Method in brief: as §1

[16] = compound: COC(=O)N[C@@H](C)CNc1nccc(-c2cn(C(C)C)nc2-c2cc(Cl)cc(NS(C)(=O)=O)c2F)n1 [encorafenib]
Method in brief: as §1

[17] = compound: COC(=O)[C@H](CCSC)NC(=O)C1=C(C=C(C=C1)NC[C@H](CS)N)C2=CC=CC=C2
Method in brief: as §1

[18] = compound: CS(=O)(=O)N1CCN(Cc2cc3nc(-c4cccc5[nH]ncc45)nc(N4CCOCC4)c3s2)CC1 [pictilisib]
Method in brief: as §1

[19] = compound: Cc1cc(Nc2cc(N3CCN(C)CC3)nc(Sc3ccc(NC(=O)C4CC4)cc3)n2)n[nH]1 [tozasertib]
Method in brief: as §1

[20] = compound: Cc1ccc(NC(=O)c2ccc(CN3CC[C@H](N(C)C)C3)c(C(F)(F)F)c2)cc1Nc1nccc(-c2cncnc2)n1 [bafetinib]
Method in brief: as §1

Measured: log2 fold change

FSIP2 (UniProt Q5CZC0)
inactive: [1] -0.192 | [2] 0.066 | [3] -0.028 | [4] 0.237 | [5] 0.159 | [6] 0.177 | [7] 0.095 | [8] -0.065 | [9] -0.066 | [10] -0.396 | [11] 0.064 | [12] 0.102 | [13] 0.209 | [14] 0.152

GDAP1 (UniProt Q8TB36)
inactive: [1] 0.061 | [2] -0.049 | [3] -0.017 | [15] 0.231 | [4] -0.062 | [16] 0.069 | [17] 0 | [6] 0.002 | [8] -0.003 | [18] 0.02 | [9] 0.005 | [10] 0.065 | [11] 0.034 | [12] -0.023 | [19] 0.052 | [13] -0.059 | [20] 0.024 | [14] -0.135

FOXP4 (UniProt Q8IVH2)
inactive: [1] 0.076 | [2] -0.145 | [3] -0.066 | [15] -0.06 | [4] -0.035 | [16] -0.097 | [17] 0.112 | [5] 0.034 | [7] 0.008 | [18] 0.066 | [10] 0.082 | [11] 0.215 | [12] -0.06 | [19] -0.034 | [20] -0.028 | [14] 0.138

GFOD2 (UniProt Q3B7J2)
inactive: [1] 0.095 | [2] 0.11 | [3] -0.018 | [15] -0.131 | [4] -0.116 | [16] 0.162 | [17] -0.015 | [6] -0.028 | [8] -0.026 | [18] -0.127 | [10] -0.188 | [11] 0.063 | [12] -0.108 | [19] 0.22 | [20] -0.037 | [14] 0.122

FRMD8 (UniProt Q9BZ67)
inactive: [1] 0.059 | [3] 0.071 | [15] -0.039 | [4] -0.018 | [16] 0.008 | [17] 0.033 | [5] 0.038 | [7] 0.054 | [18] 0 | [9] 0.054 | [10] 0.098 | [11] 0.021 | [12] 0.036 | [19] -0.068 | [13] 0.073 | [20] -0.049 | [14] 0.054
